The campaign covered roughly 320,000 compounds. About 22,000 (6.9%) were called active. Inconclusive results, whose numbers are uncertain, are shown with a selection of clear calls. The call rests on the fitted dose curve; in most records, active means well fitted inhibition curve with a large enough effect; inconclusive means small, poorly fitted or top-dose-only effect, or another doubt; inactive means no such curve, though single readings can be large or run the other way. A potency beside an inconclusive call is a rough fit, not a confirmed value.
Assay: Primary qHTS for delayed death inhibitors of the malarial parasite plastid, 96 hour incubation
Settings: P. falciparum luciferase reporter growth; series mostly up to 28.7 µM
Method in brief: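 96 h incubation, 37 C, 5% CO2, of luciferase-reporter P. falciparum-infected RBCs (2% hematocrit, 0.05% parasitemia final) with test compounds; endpoint luminescence.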
In the case of `CCN(CC)S(=O)(=O)c1cc(NC(=O)c2ccc3c(c2)NC(=O)C(C)S3)ccc1C` (stereo not given), the Potency is reported as inconclusive: 9.28 µM [inhibitor, single point].
For `Cc1ccc(Oc2c(C(N)=O)cc([N+](=O)[O-])cc2[N+](=O)[O-])cc1`, the Potency was inconclusive: 13.1 µM [inhibitor, partial curve, poor fit].
With `Cc1cccc(OCCOCCN2CCNCC2)c1C` the Potency was “inactive”.
In the case of `CC(=O)Nc1nc2ccccc2n1Cc1ccc(Cl)cc1`, the Potency is reported as inconclusive: 1.85 µM [inhibitor, full curve].
With `CCN(C(=O)COC(=O)c1ccccc1Nc1cccc(C)c1C)C1CCS(=O)(=O)C1` (stereo not given) the Potency was inconclusive: 14.7 µM [inhibitor, partial curve, poor fit].
For `O=C(Nc1ccc2c(c1)OCO2)c1ccc(Cl)cc1Cl`, the Potency was inconclusive: 18.5 µM [inhibitor, single point].
In the case of `Cc1ccc(C(=O)NCC(=O)N(C)CC(=O)Nc2c(Cl)cccc2Cl)s1`, the Potency is reported as “inactive”.
With `Cc1ccc(C)c(NC(=O)CN(C)C(C)C(=O)N2CC(C)CC(C)C2)c1` (stereo not given) the Potency was “inactive”.
With `O=C(NC1CCN(Cc2ccccc2)CC1)c1cncc(Br)c1` the Potency was inconclusive: 0.262 µM [inhibitor, full curve, poor fit].
With `O=C(/C=C/c1ccccc1)N1CCN(c2ccccn2)CC1` the Potency was “inactive”.
For `C=CCNC(=S)NNC(=O)c1csc(C)c1C`, the Potency was inconclusive: 18.5 µM [inhibitor, single point].
In the case of `Cc1ccc2cccc(Oc3ncnc4scc(-c5ccc(Cl)cc5)c34)c2n1`, the Potency is reported as active: 10.4 µM.
In the case of `CCOc1ccc(NC(=O)CCSc2ccc(C)cc2)cc1`, the Potency is reported as “inactive”.
With `CCC(C)NC(=O)c1c(N)n(Cc2ccc3c(c2)OCO3)c2nc3ccccc3nc12` (stereo not given) the Potency was inconclusive: 18.5 µM [inhibitor, single point].
For `O=C(O)c1ccc(S(=O)(=O)c2ccc3c(c2)C(=O)N(NC(=O)c2ccc(O)cc2)C3=O)cc1`, the Potency was inconclusive: 3.7 µM [inhibitor, single point].
In the case of `O=C(NNC(=O)c1cccnc1)Nc1cccc2ccccc12`, the Potency is reported as inconclusive: 0.0586 µM [inhibitor, full curve, poor fit].
With `COc1ccc(S(=O)(=O)N2CN3CCN(C3)C2)cc1` the Potency was “inactive”.
With `O=C(O)CCCC(=O)Nc1ccc(Sc2ccc([N+](=O)[O-])cc2)cc1` the Potency was inconclusive: 10.4 µM [inhibitor, single point].
In the case of `O=C(CC(=O)c1ccccc1O)c1ccc(F)cc1`, the Potency is reported as inconclusive: 2.08 µM [inhibitor, full curve, poor fit].
For `O=C(/C=C/c1ccccc1Cl)Nn1cnc2ccccc2c1=O`, the Potency was “inactive”.
For `CCOc1cc(CNn2cn[nH]c2=S)cc(Cl)c1OCc1ccccc1F`, the Potency was inconclusive: 18.5 µM [inhibitor, single point].
For `COc1ccc(C(O)Cn2c(=N)n(CCCN(C)C)c3ccccc32)cc1` (stereo not given), the Potency was inconclusive: 7.38 µM [inhibitor, partial curve, poor fit].
In the case of `COc1ccc(CN(C)Cc2ccccc2)c(OC)c1OC`, the Potency is reported as “inactive”.
For `O=C(Nc1sc2c(c1C(=O)O)CCC2)C(=O)N1CCOCC1`, the Potency was inconclusive: 11.7 µM [inhibitor, single point].
For `O=C(Cc1sc(-c2ccccc2)nc1-c1ccccc1)Nc1ccc(Cl)cc1`, the Potency was inconclusive: 0.0738 µM [inhibitor, single point].
For `COC(=O)c1cc(Br)c(=O)n(CCC2=CCCCC2)c1`, the Potency was “inactive”.
For `COc1ccccc1NC(=O)c1ccccc1NC(=O)c1ccccn1`, the Potency was inconclusive: 18.5 µM [inhibitor, single point].
With `COc1ccc(C(=O)Nc2ccccc2C(=O)Nc2ccccc2C(=O)O)cc1` the Potency was “inactive”.
For `O=C(NCc1ccc2c(c1)OCO2)c1ccc(CSCc2ccc(Cl)cc2)o1`, the Potency was “inactive”.
In the case of `O=C(NC1(C(F)(F)F)N=C2SCCN2C1=O)c1ccco1` (stereo not given), the Potency is reported as inconclusive: 13.1 µM [inhibitor, single point].
With `CC1(C(=O)N2CCN(c3ccccc3)CC2)CC1(Cl)Cl` (stereo not given) the Potency was inconclusive: 0.0037 µM [inhibitor, full curve, poor fit].
For `CC(C)c1ccc(NC2CCCN(C(=O)CC3CCCC3)C2)cc1` (stereo not given), the Potency was inconclusive: 18.5 µM [inhibitor, single point].
With `CCc1nnc(NC(=O)c2cc(Cl)ccn2)s1` the Potency was active: 5.86 µM.
With `CCNC(=O)COC(=O)c1cc(C)n(-c2ccccc2)c1C` the Potency was “inactive”.
In the case of `CC(C)(C)[C@H]1C=C(C(=O)NCc2nc3ccccc3[nH]2)O[C@@H](OCc2ccc(CO)cc2)C1`, the Potency is reported as inconclusive: 18.5 µM [inhibitor, single point].
In the case of `O=C(NC(=S)NNC(=O)c1cnccn1)c1ccc(Cl)cc1`, the Potency is reported as inconclusive: 18.5 µM [inhibitor, single point].
With `COc1ccccc1NC(=O)c1sc2nc(N3CCOCC3)c3c(c2c1N)CCCC3` the Potency was inconclusive: 11.7 µM [inhibitor, single point].
For `O=C(NC1(Cc2ccccc2)CCN(CCc2cccs2)C1=O)c1ccccc1` (stereo not given), the Potency was inconclusive: 14.7 µM [inhibitor, single point].
For `O=C1C(=O)c2ccc(-c3ccccc3)cc2-c2ccccc21`, the Potency was active: 3.7 µM.
In the case of `CC(C)OCCCNC(=O)c1c(N)n(CC2CCCO2)c2nc3ccccc3nc12` (stereo not given), the Potency is reported as inconclusive: 0.37 µM [inhibitor, full curve, poor fit].
With `C=CCSc1nnc2c(n1)OC=Nc1ccc(Br)cc1-2` the Potency was inconclusive: 0.657 µM [inhibitor, full curve, poor fit].
With `CCOC(=O)C1CCN(C(=O)CCCNC(=O)Cn2cnc3sc(C)c(C)c3c2=O)CC1` the Potency was inconclusive: 18.5 µM [inhibitor, single point].
With `Cc1oc2c(CN3CCCCC3C)c(O)ccc2c(=O)c1-c1ccccc1` (stereo not given) the Potency was inconclusive: 7.38 µM [inhibitor, partial curve].
For `CC(C)(C)C1CCC2(CC1)NC(=S)N(c1ccccc1)N2` (stereo not given), the Potency was inconclusive: 18.5 µM [inhibitor, single point].
Potency means the concentration at half of the fitted maximal effect.
